This experiment addresses T1, active murine TRAIL (murine, UniProt P50592 99-291).
T1 construct: The result is told only for 'active murine TRAIL which was bioactive in cell culture assays'; The construct (flag-tagged 99-291 or Fc fusion) is not tied to the KD; also called murine flag TRAIL; murine Fc TRAIL
T1 sequence (looked up): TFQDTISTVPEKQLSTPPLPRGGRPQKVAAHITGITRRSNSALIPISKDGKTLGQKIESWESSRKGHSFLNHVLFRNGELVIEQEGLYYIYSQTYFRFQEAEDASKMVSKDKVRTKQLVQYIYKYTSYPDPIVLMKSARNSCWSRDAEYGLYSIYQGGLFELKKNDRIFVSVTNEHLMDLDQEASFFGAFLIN
The experiment is described as follows: SPR, Biacore 2000, 25° C. For orientation: In SPR one partner is held on a chip, and binding of the other changes the refractive index at the surface.

These are yes or no findings as the source states them, for the method shown. Some entries that bind do so weakly or less than the wild type.

B1: recombinant ymkz5-receptor (receptor)
chain: MPESYSFNCPDGEYQSNDVCCKTCPSGTFVKAPCKIPHTQGQCEKCHPGTFTGKDNGLHDCELCSTCDKDQNMVADCSATSDRKCECQIGLYYYDPKFPESCRPCTKCPQGIPVLQECNSTANTVC
Regarding B1, the binding result is “binds”.

(Values after patent publication US20030096355A1 (published 2003).)
